Values from PubChem BioAssay AID686943 (Drosophila RNAi Screening Center, 2013).
In all, the deposit lists about 23,000 reagents; shown is a random part of those that have a named target and a result. 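Extra replicates exist only for a retested subset of genes; insulin dose and duration not given; both raised and lowered dpERK matter.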 Reagents against one gene are numbered here. Further read-outs or replicates are left out here. The record does not give: the amount of reagent, the time to read-out.

Aim: 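Fly genes whose loss alters ERK activation after insulin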 (primary screen)
System: Drosophila S2R+ haemocyte-like cells expressing YFP-tagged ERK (Rolled)
Reagents: long dsRNA against Drosophila genes
Treatment: insulin stimulation versus unstimulated cells; dose and duration not given
Measurement: 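Antibody staining for doubly phosphorylated ERK divided by ERK-YFP signal, as plate z-scores, in insulin-treated and untreated cells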
Reading the numbers: replicate 1, z-score of dpERK with insulin and replicate 2, z-score of dpERK with insulin: higher = more active ERK per ERK-YFP after insulin

With CG7296 (GeneID 34469) #1, what was measured?
replicate 1, z-score of dpERK with insulin: 0.63; replicate 2, z-score of dpERK with insulin: -0.25

How did the screen score CG7296 (GeneID 34469) #2?
replicate 1, z-score of dpERK with insulin: 0.03; replicate 2, z-score of dpERK with insulin: -0.26

How did the screen score CG15864 (GeneID 50001)?
replicate 1, z-score of dpERK with insulin: -0.04; replicate 2, z-score of dpERK with insulin: -0.35

How did the screen score GstE11 (GeneID 37128)?
replicate 1, z-score of dpERK with insulin: 0.03; replicate 2, z-score of dpERK with insulin: 0.28

What did the screen give for CG15890 (GeneID 32401)?
replicate 1, z-score of dpERK with insulin: -0.18; replicate 2, z-score of dpERK with insulin: -0.4

What is on record for Nna1 (GeneID 32329) #1?
replicate 1, z-score of dpERK with insulin: 0.56; replicate 2, z-score of dpERK with insulin: 0.1

How did the screen score Nna1 (GeneID 32329) #2?
replicate 1, z-score of dpERK with insulin: 1.06; replicate 2, z-score of dpERK with insulin: -0.13

With CG13313 (GeneID 39022), what does the deposit list?
replicate 1, z-score of dpERK with insulin: -0.87; replicate 2, z-score of dpERK with insulin: -0.07

How did the screen score ppk11 (GeneID 34299)?
replicate 1, z-score of dpERK with insulin: 0.4; replicate 2, z-score of dpERK with insulin: 0.17

Which result is listed for CG11349 (GeneID 38552)?
replicate 1, z-score of dpERK with insulin: 0.19; replicate 2, z-score of dpERK with insulin: 0.67

What did the screen give for CG10958 (GeneID 31736)?
replicate 1, z-score of dpERK with insulin: 0.1; replicate 2, z-score of dpERK with insulin: 1.01

What did the screen give for CG18178 (GeneID 39138)?
replicate 1, z-score of dpERK with insulin: -0.08; replicate 2, z-score of dpERK with insulin: 0.08

With CG15478 (GeneID 31679), what does the deposit list?
replicate 1, z-score of dpERK with insulin: 0.01; replicate 2, z-score of dpERK with insulin: 1.03

What did the screen give for Kua (GeneID 35300)?
replicate 1, z-score of dpERK with insulin: 0.13; replicate 2, z-score of dpERK with insulin: 0

Which result is listed for Desat1 (GeneID 117369)?
replicate 1, z-score of dpERK with insulin: -1.84; replicate 2, z-score of dpERK with insulin: -1.91

What is on record for CG16758 (GeneID 38315) #1?
replicate 1, z-score of dpERK with insulin: 1.14; replicate 2, z-score of dpERK with insulin: -1.01

What did the screen give for CG16758 (GeneID 38315) #2?
replicate 1, z-score of dpERK with insulin: 0.02; replicate 2, z-score of dpERK with insulin: -0.17

What did the screen give for PIG-T (GeneID 31772)?
replicate 1, z-score of dpERK with insulin: -0.85; replicate 2, z-score of dpERK with insulin: -0.67

How did the screen score GstS1 (GeneID 36927)?
replicate 1, z-score of dpERK with insulin: -0.03; replicate 2, z-score of dpERK with insulin: -0.72

What did the screen give for Vsx1 (GeneID 31470) #1?
replicate 1, z-score of dpERK with insulin: -5.03; replicate 2, z-score of dpERK with insulin: 0.93

What did the screen give for Vsx1 (GeneID 31470) #2?
replicate 1, z-score of dpERK with insulin: -1.27; replicate 2, z-score of dpERK with insulin: 0.24

With CG32236 (GeneID 249170), what was measured?
replicate 1, z-score of dpERK with insulin: 0.36; replicate 2, z-score of dpERK with insulin: 0.24

How did the screen score RpS13 (GeneID 34149)?
replicate 1, z-score of dpERK with insulin: -1.8; replicate 2, z-score of dpERK with insulin: -1.81

With Phlpp (GeneID 35178) #1, what was measured?
replicate 1, z-score of dpERK with insulin: -0.1; replicate 2, z-score of dpERK with insulin: 1.3

What did the screen give for Phlpp (GeneID 35178) #2?
replicate 1, z-score of dpERK with insulin: 0.03; replicate 2, z-score of dpERK with insulin: -0.28

For Cyp4d20 (GeneID 38311), how do the results read?
replicate 1, z-score of dpERK with insulin: -0.15; replicate 2, z-score of dpERK with insulin: -0.64

With rl (GeneID 3354888) #1, how do the results read?
replicate 1, z-score of dpERK with insulin: -0.18; replicate 2, z-score of dpERK with insulin: -0.88

With rl (GeneID 3354888) #2, how do the results read?
replicate 1, z-score of dpERK with insulin: -0.75; replicate 2, z-score of dpERK with insulin: 1.54

What is on record for rl (GeneID 3354888) #3?
replicate 1, z-score of dpERK with insulin: -2.79; replicate 2, z-score of dpERK with insulin: -1.66

What is on record for CG42788 (GeneID 41817) #1?
replicate 1, z-score of dpERK with insulin: 1.38; replicate 2, z-score of dpERK with insulin: 0.62

With CG42788 (GeneID 41817) #2, how do the results read?
replicate 1, z-score of dpERK with insulin: 0.29; replicate 2, z-score of dpERK with insulin: 1.8

Which result is listed for CG42788 (GeneID 41817) #3?
replicate 1, z-score of dpERK with insulin: 0.52; replicate 2, z-score of dpERK with insulin: 0.29

Already shown: an excerpt of the list.
GstE11 (GeneID 37128): replicate 1, z-score of dpERK with insulin = 0.03; replicate 2, z-score of dpERK with insulin = 0.28
CG15890 (GeneID 32401): replicate 1, z-score of dpERK with insulin = -0.18; replicate 2, z-score of dpERK with insulin = -0.4
